The data set in a line: peptide synthesis. The note with it: purification step, HPLC (A %), diacetate.

In the case of “1-((4R,5S)-5-(2-Aminoethylamino)-N2-(10,12-dimethyl-1-oxotetradecyl)-4-hydroxy-L-ornithine)-2-L-serine-5-((3R)-3-hydroxy-L-ornithine)-pneumocandin B0”, the “final HPLC purity” value was found to be 94.0 A %.

(Values after patent publication US20090324635 (published 2009).)
